The assay relates to B6C3F1 mice, B16 melanoma ip, median survival T/C. Put plainly: NCI In Vivo Anticancer Drug Screen. Data for tumor model B16 Melanoma (intraperitoneal) in B6C3F1 mice. The conditions noted are these: T/C endpoint: median survival time, schedule: Q01DX009 (ip), higher T/C = longer survival. How it is done:
The antitumor activity of compounds was measured in mice bearing transplantable tumors. Survival or tumor size were measured and the results are expressed as the measurement made in the treated group (T) divided by the measurement made in the vehicle treated control group (C). The tumor model used in this assay is B16 Melanoma (intraperitoneal) in B6C3F1 mice

Where [1] appears, read: dose: 0.5 mg/kg/injection, vehicle: saline + alcohol.
The mark [2] stands for this setting: dose: 1.0 mg/kg/injection, vehicle: saline + alcohol.
The mark [3] stands for this setting: dose: 2.0 mg/kg/injection, vehicle: saline + alcohol.
[4] abbreviates: dose: 0.5 mg/kg/injection, vehicle: distilled water + Tween-80.

The list shows only some results of the screen, not a fair sample: it gathers some chemical classes. Not every dose and run of a compound is shown. T/C is the treated group as % of the vehicle group. Where survival is the endpoint, this PubChem deposit counts one and a half times the control or more as active, and values a quarter to a half above the control carry no call in these data; other NCI protocols may use other cut-offs. Schedules are NCI's codes, taken here to give the interval after Q, in days (D) or hours (H), and the number of doses after X. Some T/C values are marked as having no survivor count here; that says nothing about deaths at the dose. Signs of the kind (2×) stand for listed records that agree. Some doses were run more than once; the results are listed from low to high.

Turning to `CC(=O)OC[C@]12CC(=O)C(C)=C[C@H]1O[C@@H]1C(=O)[C@@H](OC(C)=O)[C@@]2(C)[C@@]12CO2`, the T/C was 117 % of control [survivor count not shown] (dose: 0.12 mg/kg/injection, vehicle: water); 106 % of control [survivor count not shown] (dose: 0.13 mg/kg/injection, vehicle: saline + alcohol); 108 % of control [survivor count not shown] (dose: 0.25 mg/kg/injection, vehicle: saline + alcohol); 111 [survivor count not shown] and 157 % of control [survivor count not shown] (dose: 0.25 mg/kg/injection, vehicle: water); 114 % of control [survivor count not shown] under setting [1]; 122 [survivor count not shown] and 177 % of control [survivor count not shown] (dose: 0.5 mg/kg/injection, vehicle: water). For the same compound, the T/C was 128 % of control [survivor count not shown] under setting [2]; 168 % of control [survivor count not shown] (dose: 1.0 mg/kg/injection, vehicle: water); 139 % of control [survivor count not shown] under setting [3]; 137 % of control [survivor count not shown] (dose: 2.0 mg/kg/injection, vehicle: water).
For the compound `CC(=O)OCC12CC(=O)C(C)=CC1OC1C(=O)C(OC(=O)CCl)C2(C)C12CO2` (stereo not given), the T/C was 121 % of control [survivor count not shown] (dose: 0.12 mg/kg/injection, vehicle: distilled water + Tween-80); 134 % of control [survivor count not shown] (dose: 0.25 mg/kg/injection, vehicle: distilled water + Tween-80); 142 [survivor count not shown] and 165 % of control [survivor count not shown] under setting [4].
Consider `CC1=C[C@H]2O[C@H]3[C@H](O)[C@@H](OC(=O)CCl)[C@](C)([C@@]2(COC(=O)CCl)CC1)[C@@]31CO1`, for which the T/C was 94 % of control [survivor count not shown] under setting [1]; 105 % of control [survivor count not shown] under setting [2]; 110 [survivor count not shown] and 115 % of control [survivor count not shown] under setting [3]; 121 % of control [survivor count not shown] (dose: 4.0 mg/kg/injection, vehicle: saline + alcohol); 143 % of control [survivor count not shown] (dose: 8.0 mg/kg/injection, vehicle: saline + alcohol).
As for `CC(=O)OCC12CCC(C)=CC1OC1C3(O)N=C(C)OC3C2(C)C12CO2` (stereo not given), the T/C runs as follows: under setting [4], 114 % of control [survivor count not shown]; (dose: 1.0 mg/kg/injection, vehicle: distilled water + Tween-80) 132 % of control [survivor count not shown]; (dose: 2.0 mg/kg/injection, vehicle: distilled water + Tween-80) 125 % of control [survivor count not shown] (2×); (dose: 4.0 mg/kg/injection, vehicle: distilled water + Tween-80) 121 [survivor count not shown] and 138 % of control [survivor count not shown]; (dose: 8.0 mg/kg/injection, vehicle: distilled water + Tween-80) 127 % of control [survivor count not shown].
For the compound `CC(=O)OC[C@]12CCC(C)=C[C@H]1O[C@H]1C(=O)[C@@H](OC(C)=O)[C@@]2(C)[C@]12CO2`, the T/C reads like this: under setting [1], 122 % of control [survivor count not shown]; under setting [2], 121 % of control [survivor count not shown]; under setting [3], 135 % of control [survivor count not shown].
As for `C[C@@H](O)[C@H]1/C=C/C=C\C(=O)O[C@@H]2C[C@H]3O[C@@H]4[C@@H]5OC5(C)CCC4(COC(=O)[C@H]4O[C@]4(C)[C@@H](O)CO1)[C@]2(C)[C@]31CO1` (stereo not given in full), the T/C is 153 % of control [survivor count not shown] (dose: 1.25 mg/kg/injection, vehicle: saline + alcohol); 158 % of control [survivor count not shown] (dose: 2.5 mg/kg/injection, vehicle: saline + alcohol); 145 % of control [survivor count not shown] (dose: 5.0 mg/kg/injection, vehicle: saline + alcohol); 150 % of control [survivor count not shown] (dose: 10.0 mg/kg/injection, vehicle: saline + alcohol).

The values above are taken from PubChem BioAssay AID200 (DTP/NCI, 2004).
